Reference: patent publication US20260061191A1, “Using Alternating Electric Fields to Increase Cell Membrane Permeability” (The Board of Trustees of the Leland Stanford Junior …, priority 2018, published 2026)
At least one compound was matched to its structure with a doubt left.

Tests used:
GBM39 cells = experiment: Drug sensitivity with TTFields; type: cell-based, human; settings: TTFields for 3 days vs control without TTFields
glioblastoma patients = settings: TTFields in glioblastoma patients on maintenance temozolomide chemotherapy; cited from earlier work

SMILES: Cn1nnc2c(C(N)=O)ncn2c1=O [Temozolomide]
- sensitivity of cells to various concentrations of drug (GBM39 cells): improves the sensitivity
- prolongation of median survival (glioblastoma patients): 5 months
